HELM strings list residues between dots; [ac] is acetyl, [am] amide, other brackets name non-standard units.
Assays:
[1] = general procedure: Fmoc solid-phase peptide synthesis; Fmoc-Rink Amide-Tentagel resin (TGRA); Fmoc-Sieber-polystyrene resin; HATU/collidine; settings: whole synthesis; for final HPLC purity: analytical HPLC (Shimadzu Nexera-x2 UHPLC, C8 or C18), scale of the general procedure 0.100-0.500 mmol
[2] = general procedure: Fmoc solid-phase peptide synthesis; Sieber resin; HATU/collidine; settings: whole synthesis, scale 0.100 mmol
[3] = general procedure: Fmoc solid-phase peptide synthesis; Tentagel Rink Amide (TGRA); HATU/collidine; settings: whole synthesis

With “PEPTIDE1{G.Y.R.P.V.H.N.I.R.G.H.W.A.P.G.K.[am]}$$$$V2.0” the “final HPLC purity” value [1] was 95.8%, the isolated mass [2] was 38.2 mg and the isolated yield [2] was 20%.
For “PEPTIDE1{G.Y.R.P.V.H.N.I.R.G.H.W.A.P.G.[KT].[am]}$$$$V2.0”, the “final HPLC purity” value [1] was 100%, the isolated mass ([3]; scale 0.029 mmol) was 28.1 mg and the isolated yield ([3]; scale 0.029 mmol) was 43%.
In the case of “PEPTIDE1{F.R.C.L.V.E.N.R.G.D.V.P.F.V.T.R.I.R.[am]}$$$$V2.0”, the “final HPLC purity” value [1] is reported as 92.3%, the isolated mass ([3]; scale 0.05 mmol) is reported as 37.3 mg and the isolated yield ([3]; scale 0.05 mmol) is reported as 36%.
With “PEPTIDE1{[tam].F.R.C.L.V.E.N.R.G.D.V.P.F.V.T.R.I.R.[am]}$$$$V2.0” the “final HPLC purity” value [1] was 99.7%, the isolated mass ([1]; scale 0.01 mmol) was 4.7 mg and the isolated yield ([1]; scale 0.01 mmol) was 18%.

Source: PMC8018780 (PLoS ONE, 2021)
